The results in this text go back to paper PMC8468827.

Sequences of proteins named here, by UniProt entry; tags and fusion partners are left off.
UniProt Q9VQ93: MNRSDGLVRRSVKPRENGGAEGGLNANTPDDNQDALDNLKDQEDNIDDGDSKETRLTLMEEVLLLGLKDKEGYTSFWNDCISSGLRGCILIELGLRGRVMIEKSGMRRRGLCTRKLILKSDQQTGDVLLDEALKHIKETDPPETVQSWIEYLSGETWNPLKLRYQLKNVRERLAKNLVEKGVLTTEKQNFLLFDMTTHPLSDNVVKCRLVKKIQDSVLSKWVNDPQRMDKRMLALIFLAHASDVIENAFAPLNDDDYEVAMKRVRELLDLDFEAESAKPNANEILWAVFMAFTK

Results are given in words; binding and its absence hold for the method and conditions named. Binding seen in cells or lysates may run through a third protein. A yes stands for co-enrichment or nearness to the bait. Other partners may have been found.

First the molecules themselves.
B1: αCOP (protein, UniProt Q9W0B8 1-1234)
chain: MLTNFESKSARVKGLSFHPKRPWILVSLHSGVIQLWDYRMHTLLEKFDEHDGPVRGVAFHQQMPLFVSGGDDYKIKVWNYKQRRCIFTLLAHLDYVRTVAFHHEYPWILSASDDQTIRIWNWQSRNCICVLTGHNHYVMCAQFHPTEDQIVSASLDQTVRVWDISGLRKKNVAPGPGGLDDHLKGHPGATDLFGQADAVVKHVLEGHDRGVNWASFHPTLPLIVSGADDRLVKLWRMNEYKAWEVDTCRGHYNNVSSVLFHPRQDLILSNGEDRSIRVWDMTKRQCLFTFRRDNERFWILTAHPTLNLFAAGHDGGMVVFKLERERPAYAVHGNILYYVKERFLRKLDFTTTKDTVVMQLRPGKSPVYSMSYNPALNAVLICTRTNNLENSTYDLCQIPKDTESQSESDSKRSSGITAIWVARNRFAVLDRNQQLVIKNFKNEVTKKLPTFCEEIFYAGTGMLLIRDPEFVTLYEVQRLVSVGSIKLAKCRYVVWSPDMSLVALLCKHSVTICDRRLQYLCTVQENCRVKSGAWDESGVFIYTTSNHIKYAITNGDHGIIRTLDLPIYLTRVKGNQVFCLDRECRTRVLHIDPTEYKFKLALIQRKYDEVLHMVRNARLVGQSIIAYLQQKGYPEVALHFVKDEKTRFGLALECGNIEIALEAAKALDDKDCWDRLGQSALLQGNHQVVEMCYQRTKNFDKLSFLYLITGNLEKLKKMNKIAEIRKDVSAQYQGALLLGDVKERVNILKNCGQLSLAYLTAATHGFDELTESLGESITSQGNSLPEVNPNAQLLQPPVPIQQLETNWPLLSVSKGFFEGAMVTRAGSSATARQALNINADAALLDEHNGGGDGWGADADLGLDEDGDDEMHDALSNDGDGGAGGEEGAGWDVGDDDLVVPEELASKIKASALDSNYYAAPNKGLSPAQQWANNSPLVLDHVKAGSFETAFRLLHDQLGVVNFQPFKTLFLQNYACSRTSYTANPNLQSLSGYPLRNYSETNIKLQRPAVGIKLNDLVARLQAGYQLTTSGKFSEAVEKFHSILISIPLLVVDTKLDAAEAQQLLRICAEYIVGLKMETVRKGMPKSTLEEQKRLCEMAAYFTHCKLQPVHQILTLRTALNMFFKLKNYKTAASFARRLLELAPRPDVAQQVRKILQACEVNPVDEHQLQYEEFNPFTICGISWKPLYRGKPEVTCPFCSSSFDPQFKGNLCTVCEVSQIGKDSIGLRISNLQFR
B2: Rab11 (protein, UniProt O18335 1-214)
chain: MGAREDEYDYLFKVVLIGDSGVGKSNLLSRFTRNEFNLESKSTIGVEFATRSIEVDGKTIKAQIWDTAGQERYRAITSAYYRGAVGALLVYDIAKHLTYENVERWLRELRDHADQNIVIMLVGNKSDLRHLRSVPTDEAKLFAERNGLSFIETSALDSTNVETAFQNILTEIYRIVSQKQIRDPPEGDVIRPSNVEPIDVKPTVTADVRKQCCQ
B3: βCOP (protein, UniProt P45437 1-964)
chain: MTSQVPCYTIINSPDLEVTNEMQLKRDLEKGDTNVKIETLKRVIKLLLNGERYPGLIMTIIRFVLPVQNHTIKKLLLIFWEIVPKTSADGKLLQEMILVCDAYRKDLQHPNEFLRGSTLRFLCKLKEPELLEPLMPAIRACLDHRHSYVRRNAVLAIFTIYKNFDWLVPDGPELIASFLDTQQDMSCKRNAFLMLLHADQERALNYLASCIDQVHTFGDILQLVIVELIYKVCHANPAERSRFIRCIYNLLNSSSNAVRYESAGTLITLSLAPTAIKAAASCYIELVVKESDNNVKLIVLDRLVAMKEHEGMEKVMQDLVMDVLRVLAAPDIEVRRKTLALALDLVYSRNIGEMVLVLKKEVAKTHNVEHEDTGKYRQLLVRTLHTCSIKFPDVAANVIPVLVEFLSDTNELAAADVLIFIREAIQKFPALRALIIEHLIEAFPQIKSSKIHRAAVWILGEYVEGSQILEVIAVIQQTLGEVPMVEAEQRRLAGDQTEEQKQQQGSAGGNAAGSAAEGSGSGNASNKVTSDGTYATQSAYSLAPVAKAEKRPPLRQYLMDGDFFIGAALSATLTKLALRYAELETEARAQNRLTTQVMLIMSSILHLGKSGFPSKPITNDDTDRIFVCLRTLSERTPEAISVFTLYCREALGKMLDAQHDEDQRMLKEKQKATAKVQPDDPVLFAQLSNGRDNQLGENVFESSLNQALAGSKNAQLSDVASPNSKLNKVTQLTGFSDPVYAEAYVNVNQYDIVLDVLIVNQTNDTLQNCTLELATLGDLKLVERPHPVVLAPHDFCNIKANVKVSSTENGIIFGNIVYETALNTNVVVLNTIHIDIMDYIIPASCTDTEFRQMWQDFEWENKVTVNTSFTDLHEYLKHLLKSTNMKCLTPEKALSGQCGFMAANMYAKSIFGENALANLSIEKPVDDPDSKVTGHIRIRAKSQGMALSLGDKISSSQKQSVQAA
B4: Rab10 (protein, UniProt O15971 1-204)
chain: MAKKTYDLLFKLLLIGDSGVGKTCILFRFSDDAFTSTFISTIGIDFKIKTVELRGKKIKLQIWDTAGQERFHTITTSYYRGAMGIMLVYDITNEKSFENIVKWLRNIDEHANEDVEKMILGNKCDMTDKRVVNKERGEAIAREHGIRFMETSAKSNINIERAFCELAEAILDKTSGRESAENQERVIIDRRNQEKAPGYSKCCA
B5: Rab5 (protein, UniProt Q9V3I2 1-219)
chain: MATTPRSGGASGTGTAQRPNGTSQNKSCQFKLVLLGESAVGKSSLVLRFVKGQFHEYQESTIGAAFLTQTICIEDTVVKFEIWDTAGQERYHSLAPMYYRGAQAAIVVYDIQNQDSFQRAKTWVKELHKQASPNIVIALAGNKADLSNIRVVEFDEAKQYAEENGLLFMETSAKTGMNVNDIFLAIAKKLPKNDGANNQGTSIRPTGTETNRPTNNCCK
B6: Srp54k (protein, UniProt Q9V3D9 1-508)
chain: MVLADLGRKITTALHSLSKATVINEEALNSMLKEICAALLEADVNIRLVKQLRENVRAVIDFDEMAGGLNKRRMIQSAVFKELVKLVDPGVKPYQPIKGKANVVMFVGLQGSGKTTTCTKLAYHYQKRNWKSCLVCADTFRAGAYDQVKQNATKARIPFYGSYTEIDPVVIAQDGVDMFKREGFEMIIVDTSGRHKQEESLFEEMLAVSNAVSPDNIIFVMDATIGQACEAQAKAFKDKVDIGSVIITKLDGHAKGGGALSAVAATQSPIIFIGTGEHIDDLEPFKTKPFVSKLLGMGDIEGLIDKVNELKLDGNDELLEKIKHGHFTIRDMYEQFQNIMKMGPFSQFMNMIPGFSQDFMTKGGEQESMARVKRMMTMMDSMSDNELDNRDGAKLFSKQPNRCVRVAQGAGVMEREVKELIAHYTKFSAVVKKMGGVKGLFKQGDMTKNVNPTQMAKLNQQIAKMIDPRMLQQMGGVGGIQNMMRQLQQGAAGGLGGLGNLMSGFGGK
B7: εCOP (protein, UniProt Q9Y0Y5 1-306)
chain: MSRQQNEEDTNSVLFDARNEYYIGNFMGSINFVLPEQGTAGPELLSYMYLSYLAIDSGRIVASDIKEGNSTPLQALRLVHEAFEQPSRTEELLEKLTDKVAGEEDETNIWHLATAIVYCHDGQFENALKILHGSTNLESMALSVQCLLRLQRVDLAKQLVAKMQEISDDATLTQLAQAWVALAQGTEQMQDAFHIYQEFCEKFKPTPALLNGQAVVHLGLERYEEADSVLRESLLKKHNDYDTLINLMVHAHLTGKPTEAITRNLEQLRQFYPKSDFVTDLDKKSAEFDRLCLQYDVEGGEKLLAV
B8: Slh (protein, UniProt Q24179 1-639)
chain: MLTLRERQINAIKQMLNLNSQQPKALAAEPVWKILIYDRVGQDIISPIISIKELRELGVTLHVQLHSDRDSIPDVPAIYFCLPTDENLDRIQQDFSSGLYDVYHLNFLAPITRSKIENLAAAALHAGCVANIHRVYDQYVNFISLEDDFFILKHQQSDQLSYYAINRANTRDEEMEALMDSIVDSLFALFVTLGNVPIIRCPRNSAAEMVARKLEKKLRENLWDARANLFHMDATQAGGGVFSFQRPVLLLLDRNMDLATPLHHTWSYQALVHDVLDLGLNLVYVEDETASAGARKKPKACDLDRNDRFWMTHKGSPFPTVAEAIQEELESYRNSEEEIKRLKTSMGIEGESDIAFSLVNDTTARLTNAVNSLPQLMEKKRLIDMHTKIATAILNFIKARRLDSFFEIEEKVMSKQTLDRPLLDLLRDGEFGQAEDKLRLYIIYFICAQQLPESEQERLKEALQAAGCDLTALAYVQRWKGIMNRSPSISQATQYEGGGTKTVSMFTKLVSQGSSFVMEGVKNLVVKRHNLPVTKITEQVMECRSNAETDDYLYLDPKLLKGGEVLPKNRAPFQDAVVFMVGGGNYIEYQNLVDFIKQKQTSNVQRRIIYGASTLTNARQFLKELSALGGEIQSPTATS
B9: Cog7 (protein, UniProt Q9VAD6 1-742)
chain: MDVSALSETTFSPAEWINANYKKFVEENGRDDSEAASAFIRSYVAKLQLYIFNVNNAVEESSRQVVASMPRIAKESAALQADVHRLQEKMSAMRLEVAAVQSETGECMATLERLNTKSQKLQVAKESLQESDGWGNLLAELEDGFERNDLKGVCDKLIALQKSLHAQEQLPGHAERQTQVEDFKNRLEALASPSVVQCFAEGNTEQAQHFVQIFTSIQRLPQLQQYYRAVQKNFWQQQWKQTLELQGTESQPQQQQFLTLYYDQLLEHCQRQVKWCSNLFGENSPQPFLVIAELLPALQPTRDAHILQLLKTSNERLEMLALFAKVNHSFVLHLNSLLEQSHITLSEELHRLLGEAIFEYFHKFIQQYPRLEETQLSTQVDRLSSNQATPSDGVRHLEESTRKLYEWLKEACERCASITSDLALCKLITLLNGIFKRQLESFGRIQRQIGLSLGSSSYAAQSENWSLLQYTMSQLQCLADFQVQLHQFEQDLHTRMVMLSNRLTKPSNRGPITIFQTCDHAARTQLLNSIADYQQKKSEATDSLGIFPQIYATLKSHFADTHDITLNILLQPIETHLAHIRPPVQDHAASGIEMPSFSFAPQESITQIGQYLLTLPQHLEPLLLSPSSLLKQALEVCNIKYTQAIPCADVLLSLVVEQCCVLYVTQILQIKSLPSSAATQLSVDIEYLSNVLEELGLSINLQLSQILTLLKAAPDQYLTLSSGCEPRLVTAIRQMRNIISTQ
B10: Rab32 (protein, UniProt A1Z7S3 1-686)
chain: MPNVDEQRGKAATKRAESEQSEEKGDRQEGDGDPKDESEEATAKIKGRSRFTAALRSLSKTKTKRERELDKSTDRETRSAEEEAQETPGELEDVASSISTDSGALGKTKKKSLTRRLLLGGLRKSGKTPKGRPHSLATSDDISVEHLETTPLPSPPGSPTSAGSSTLQITISGKKVEPSPAKKSGKSRPKSDTDYLTPAAEERKPRKKTTTTTVTTRDTSSSTRTTKLLVSKKKPQSPERESPSASPSPLITTTESTRDTPPRERAPAKPSRVQSASGTGAVRKSQSSSASSRKLELMQQQQQRGHRLNARPLAELANTEPQPSGQQSLDPSTSPPAAEDGVSSAESAQTIANPPPVVRFEVGSAVRSPLSAYEAALAAAASQQPNSNEELSDSSIRRLSFAQQQLILGDHDSIEGRRETLHYQSVASEYSNQDSGSEDDSEEQADTTEPENAKPMPAFGDLTMDQEMEPAIMTSTSDKREHLYKILVIGELGTGKTSFIKRYVHQFFSQNYRATIGVDFALKVLQWDANTIVRLQLWDIAGQERFGNMTRVYYKEAVGAFIVFDVTRSGTFDCVSKWKEDLDSKVQLPDGSPIPCILLANKCDQEKQGIITQPEKMDEYVRENGFAGWFETSAKENINIDEAARALVNKILINDKLISADLADGDKFNLSAADATGSDAKNKCSC

This assay deals with dGOLPH3-mRFP (Drosophila) (UniProt Q9VQ93). The experiment in a line: affinity purification with mass spectrometry; RFP-trap beads on lysate of 3000 adult testes expressing dGOLPH3-RFP (RFP alone as control); lysis buffer 25 mM Tris-HCl pH 7.4, 150 mM NaCl, 1 mM EDTA, 1% NP-40; washes at 4 °C; nanoLC-MS/MS.
On to B1, for which the binding result is “binds”.
In the case of B2 it was “binds”; in that of B3, “binds”; in that of B4, “binds”.
For B5, the binding result is “binds”.
Take B6: the binding result is on record as “binds”.
Turning to B7, the binding result is “binds”.
Take B8: the binding entry is recorded as “binds”.
In the case of B9, the binding result is recorded as “binds”.
Take B10: the binding result is listed as “binds”.
